# From PMC8774231, “Point Mutations at a Key Site Alter the Cytochrome P450 OleP Structural Dynamics” (Biomolecules, 2021)
# Residue numbers refer to the chain shown, from its start. Names and notes keep the numbering of the source. These are yes or no findings as the source states them, for the method shown.
# B1: OleP mutant E89Y (enzyme, UniProt Q59819 1-407)
# chain: MTDTHTGPTPADAVPAYPFSLPHALDLDPHYAELRRDEPVSRVRLPYGEGTAWLVTRMSDARIVLGDSRFSTAAATDPATPRMFPTPPYPDGVLAQDPPDHTRLRRLVGKAFTARRVEEMRPRVRSLVDSLLDDMVAHGSPADLVEFLAVPFPVAVICELLGVPLEDRDLFRTFSDAMLSSTRLTAAEIQRVQQDFMVYMDGLVAQRRDAPTEDLLGALALATDNDDHLTKGEIVNMGVSLLIAGHETSVNQITNLVHLLLTERKRYESLVADPALVPAAVEEMLRYTPLVSAGSFVRVATEDVELSTVTVRAGEPCVVHFASANRDEEVFDHADELDFHRERNPHIAFGHGAHHCIGAQLGRLELQEALSALVRRFPTLDLAEPVAGLKWKQGMLIRGLERQIVSW
# B2: OleP mutant G92W (enzyme, UniProt Q59819 1-407)
# chain: B1 chain with Y89E, G92W
# B3: OleP mutant S240Y (enzyme, UniProt Q59819 1-407)
# chain: B1 chain with Y89E, S240Y
# Key:
# Test in all cases: SEC; gel filtration, 10/400 column packed with Tosoh HW-55S resin, 20 mM Tris-HCl, 200 mM NaCl, pH 8.0, 293 K; both purified
# [1] = biological target: OleP mutant E89Y (Streptomyces antibioticus) (UniProt Q59819)
# [2] = biological target: OleP mutant G92W (Streptomyces antibioticus) (UniProt Q59819)
# [3] = biological target: OleP mutant S240Y (Streptomyces antibioticus) (UniProt Q59819)
binder,measurement,setting,value
B1,binding,[1],no binding
B2,binding,[2],no binding
B3,binding,[3],no binding
